# Assay results: PubChem BioAssay AID540256 (National Center for Advancing Translational Sciences (NCATS), 2011)
# The whole screen tested about 300,000 compounds, of which about 3,700 (1.2%) were called active. The shares of active, inactive and inconclusive entries below differ from those in the screen. The call rests on the fitted dose curve; tested in HEK293 cells. A potency beside an inconclusive call is a rough fit, not a confirmed value.
# Assay: qHTS for Inhibitors of binding or entry into cells for Lassa Virus; further: nearly all actives have a fitted effect of over 50% in size
# Conditions: Lassa virus pseudotype entry inhibition, cell reporter; activity change, negative = inhibition: at 37.9 µM (top of the series) unless noted
# On the % scale 0 is the no-effect control and ±100 the full control effect; potency means the concentration at half of the fitted maximal effect.
SMILES,"activity change, negative = inhibition",Potency
CCn1c(=N)n(CC(O)COc2cccc(C)c2)c2ccccc21 (stereo not drawn),inactive: 0.385%,
Cc1cccc(N2CCN(C(=O)CNC(=O)C3CCCCC3)CC2)c1C,,"inconclusive: 35.5 µM [inhibitor, single point]"
COc1ccc(C2CC(c3cccs3)=NN2C(=O)c2ccco2)cc1OC (stereo not drawn),inactive: -26.1% [at 46.1 µM],
COc1cc(C2CC(=O)C=C(O)C2)cc(OC)c1OC (stereo not drawn),inactive: 9.58%,
COc1cccc(NC(=O)CN(C)C(=O)/C=C/c2cn(-c3ccccc3)nc2-c2ccc(C)cc2)c1,,"inconclusive: 11.2 µM [inhibitor, partial curve, poor fit]"
O=C(C[n+]1cc(Br)cc2ccccc21)c1ccc(Br)cc1,inactive: 2.57% [at 46.1 µM],
CCOc1cc(/C=N/NC(=O)COc2ccc(Cl)cc2)ccc1OS(=O)(=O)c1ccccc1,,"inconclusive: 18.3 µM [inhibitor, single point]"
CCC(=O)NCc1csc(-c2cccs2)n1,,"inconclusive: 31.6 µM [activator, single point]"
CCc1ccc(NC(=O)CC2C(=O)N(c3cccc(OC)c3)C(=O)N2C2CCCC2)cc1 (stereo not drawn),,"inconclusive: 35.5 µM [inhibitor, single point]"
Cc1ccc(Cc2nc(-c3cccnc3)no2)cc1,inactive: 7.95%,
Cc1cc(Oc2ccccc2)nc(SCC(=O)Nc2ccc(Cl)c(Cl)c2)n1,inactive: -14.6%,
CCOc1ccc(C(=O)NCC(=O)N2CCN(Cc3ccccc3)CC2)cc1,,"inconclusive: 0.631 µM [inhibitor, full curve, poor fit]"
COc1ccccc1CNC(=S)NC1CCCC1,,"inconclusive: 11.2 µM [inhibitor, single point]"
COc1ccc(C)cc1NS(=O)(=O)c1cn(C)nc1C,inactive: 16.8%,
COc1ccccc1S(=O)(=O)Cc1ccc(C(=O)NCc2ccc(Cl)cc2)o1,inactive: -26% [at 46.1 µM],
Cc1ccc(N2CCN(S(=O)(=O)c3cccc4ccccc34)CC2)cc1Cl,,"inconclusive: 11.2 µM [inhibitor, partial curve, poor fit]"
CCCCCOc1ccc(C(=O)CCC(=O)N2CCCC2)cc1,,"inconclusive: 3.16 µM [inhibitor, single point]"
COc1ccc(S(=O)(=O)Nc2ccc(-c3cn4c(C)csc4n3)cc2)cc1,,"inconclusive: 5.62 µM [inhibitor, single point]"
N#Cc1c(-c2ccc(Cl)cc2)c(-c2ccc(Cl)cc2)nn(CCOC(=O)CCC(=O)O)c1=O,,"inconclusive: 8.91 µM [inhibitor, partial curve, poor fit]"
O=C(N/N=C/c1c(O)n(-c2cccc3ccccc23)c(=O)[nH]c1=O)c1ccncc1,,"inconclusive: 7.94 µM [activator, partial curve]"
CCn1c(C)c(C(C)=O)c(N2CCN(c3ccc(F)cc3)CC2)nc1=S,,"inconclusive: 0.501 µM [inhibitor, partial curve, poor fit]"
CCn1cc(CN2CCCC(C(=O)Nc3cccc(-c4cc5ccccc5[nH]4)c3)C2)cn1 (stereo not drawn),,"inconclusive: 0.794 µM [inhibitor, full curve, poor fit]"
Cc1cc(C)cc(-n2c(C)cc(C(=S)N3CCOCC3)c2C)c1,,"inconclusive: 7.08 µM [inhibitor, single point]"

# Not a retest: an excerpt of the list.
SMILES,"activity change, negative = inhibition",Potency
Cc1cccc(N2CCN(C(=O)CNC(=O)C3CCCCC3)CC2)c1C,,"inconclusive: 35.5 µM [inhibitor, single point]"
COc1ccc(C2CC(c3cccs3)=NN2C(=O)c2ccco2)cc1OC (stereo not drawn),inactive: -26.1% [at 46.1 µM],
COc1cc(C2CC(=O)C=C(O)C2)cc(OC)c1OC (stereo not drawn),inactive: 9.58%,
COc1cccc(NC(=O)CN(C)C(=O)/C=C/c2cn(-c3ccccc3)nc2-c2ccc(C)cc2)c1,,"inconclusive: 11.2 µM [inhibitor, partial curve, poor fit]"
O=C(C[n+]1cc(Br)cc2ccccc21)c1ccc(Br)cc1,inactive: 2.57% [at 46.1 µM],
CCOc1cc(/C=N/NC(=O)COc2ccc(Cl)cc2)ccc1OS(=O)(=O)c1ccccc1,,"inconclusive: 18.3 µM [inhibitor, single point]"
CCC(=O)NCc1csc(-c2cccs2)n1,,"inconclusive: 31.6 µM [activator, single point]"
CCc1ccc(NC(=O)CC2C(=O)N(c3cccc(OC)c3)C(=O)N2C2CCCC2)cc1 (stereo not drawn),,"inconclusive: 35.5 µM [inhibitor, single point]"
Cc1ccc(Cc2nc(-c3cccnc3)no2)cc1,inactive: 7.95%,
Cc1cc(Oc2ccccc2)nc(SCC(=O)Nc2ccc(Cl)c(Cl)c2)n1,inactive: -14.6%,
CCOc1ccc(C(=O)NCC(=O)N2CCN(Cc3ccccc3)CC2)cc1,,"inconclusive: 0.631 µM [inhibitor, full curve, poor fit]"
COc1ccccc1CNC(=S)NC1CCCC1,,"inconclusive: 11.2 µM [inhibitor, single point]"
COc1ccc(C)cc1NS(=O)(=O)c1cn(C)nc1C,inactive: 16.8%,

# Continuation.

SMILES,"activity change, negative = inhibition",Potency
COC(=O)c1ccccc1NC(=O)C1CCN(C(=O)Cc2ccccc2)CC1,inactive: -17.8%,
Nc1ccc(O)c2c(=O)cc(-c3ccccc3Cl)oc12,,"inconclusive: 3.26 µM [activator, single point]"
COc1cccc(CNC(=O)COc2cc(=O)n(C)c3ccccc23)c1,,"inconclusive: 35.5 µM [activator, single point]"
O=C(Cn1nc(C(F)(F)F)c2c1CCCC2)Nc1ccc(Br)cc1,,"inconclusive: 0.631 µM [inhibitor, partial curve, poor fit]"
CN(C)Cc1ccccc1C(O)(c1ccccc1)c1ccccc1,,"inconclusive: 35.5 µM [inhibitor, single point]"
CNc1snc(C)c1C(=O)OCC(=O)NCc1ccccc1OC,,"inconclusive: 14.1 µM [inhibitor, partial curve, poor fit]"
COc1ccccc1/C=C/CN1CCC(CO)(Cc2ccccc2)CC1,,"inconclusive: 7.08 µM [activator, single point]"
Cc1ccc(C)c(NC(=S)NCc2ccc3[nH]c4c(c3c2)CCCC4)c1,,"inconclusive: 29.1 µM [inhibitor, single point]"
CCn1cc(/C=C/C(=O)Nc2ccc(C)cc2Br)cn1,,"inconclusive: 0.708 µM [activator, full curve, poor fit]"
CCCCn1c(N)c(N(CC(C)C)C(=O)CN(C)S(=O)(=O)c2ccc(C)cc2)c(=O)[nH]c1=O,,"inconclusive: 5.62 µM [activator, single point]"
Cn1c(=O)[nH]c(=O)c2c1nc(N1CCCCCC1)n2CCCSc1nnnn1-c1ccccc1,,"inconclusive: 8.2 µM [inhibitor, partial curve, poor fit]"
Cc1ncc(CO)c(/C=N/Nc2ccc(C(F)(F)F)cn2)c1O,,"inconclusive: 10 µM [inhibitor, partial curve, poor fit]"
Cc1cc(C)c(S(=O)(=O)Nc2ccc3c4c(cccc24)CC3)c(C)c1,,active: 1 µM
O=S(=O)(NC1CC1)c1ccc(Br)cc1N1CCC[C@H]1CO,,"inconclusive: 4.45 µM [activator, full curve, poor fit]"
Cc1ccc(S(=O)(=O)NCc2ccccc2)cc1C(=O)NC1CCCCC1,,"inconclusive: 35.5 µM [inhibitor, single point]"
Cc1ccc(NC(=O)CNC(=O)c2cccc(Cl)c2)nc1,inactive: 23%,
CSc1cccc(N2C(=O)C3CCCN3C2=S)c1 (stereo not drawn),inactive: -8.35% [at 46.1 µM],
Cc1ccc(Oc2c(CO)c(-c3ccccc3)nn2C)cc1,,"inconclusive: 17.8 µM [inhibitor, partial curve, poor fit]"
CNC(=S)N(CCc1c(C)[nH]c2ccc(OC)cc12)Cc1cc(OC)c(OC)c(OC)c1,,"inconclusive: 14.6 µM [inhibitor, partial curve, poor fit]"
CC(C)n1cnc2cc(NCc3nc4ccccc4n3C)ccc21,,"inconclusive: 8.91 µM [inhibitor, partial curve, poor fit]"
CCOc1ccccc1CNCc1cccn1-c1nnc(N2CCN(c3ccccc3)CC2)s1,,"inconclusive: 35.5 µM [inhibitor, single point]"
COC(=O)c1ccc(NC(=O)CCn2cnnn2)cc1,,"inconclusive: 2.24 µM [activator, full curve]"
Cc1ccsc1/C=C1\SC(N2CCOCC2)=NC1=O,,"inconclusive: 5.01 µM [activator, partial curve]"

SMILES,"activity change, negative = inhibition",Potency
O=C(Nc1ccccc1F)c1ccc2c(Cl)c3c(nc2c1)CCC3,,"inconclusive: 10 µM [inhibitor, partial curve, poor fit]"
Cc1cc(NC(=S)N(CCCN2CCOCC2)Cc2ccco2)ccc1Cl,,"inconclusive: 29.1 µM [inhibitor, single point]"
Nn1cnnc1N/N=C/c1cc(Br)cc(Br)c1O,,"inconclusive: 14.1 µM [inhibitor, partial curve, poor fit]"
CC1(C)CC(=O)C2=C(C1)OC1=C(C(=O)CC(C)(C)C1)C2c1cc([N+](=O)[O-])cc([N+](=O)[O-])c1O,,"inconclusive: 0.562 µM [inhibitor, full curve, poor fit]"
O=C(Nc1ccccc1Cl)c1ccc(Cl)cc1Cl,inactive: 0.137% [at 46.1 µM],
CN(CC(=O)NC(=O)NCc1ccccc1)CC(=O)Nc1ccc(Cl)c(C(F)(F)F)c1,,"inconclusive: 20 µM [inhibitor, single point]"
Cc1cc(C)n(CC(C)C(=O)O)n1 (stereo not drawn),inactive: 4.29%,
COc1ccc(-c2ccc(C(=O)O)o2)c([N+](=O)[O-])c1,inactive: 13.5% [at 46.1 µM],
Cc1c(Cl)cccc1-n1ncc(C(=O)Nc2ccc(Br)cc2F)c1C1CCNCC1,inactive: 1.69% [at 46.1 µM],
CC(C)(C)NC(=O)C1CCN(C(=O)c2ccco2)CC1,,"inconclusive: 35.5 µM [inhibitor, single point]"
CC(=O)c1c(C)oc2c1cc(NS(=O)(=O)c1ccc(Br)cc1)c1ccccc12,,"inconclusive: 0.891 µM [inhibitor, full curve, poor fit]"
CCNC(=O)C(=O)NCC1OCCCN1S(=O)(=O)c1cccs1 (stereo not drawn),inactive: -1.08%,
Cc1ccccc1-c1ccc(/C=C2/SC(N3CCOCC3)=NC2=O)o1,,active: 12.6 µM
COc1ccc(N2C(=O)CC(Sc3nc4ccccc4s3)C2=O)cc1 (stereo not drawn),inactive: 5.25%,
Cc1nc(-c2ccc(Cl)cc2)sc1C(=O)NNC(=O)C(C)C,inactive: 6.04% [at 46.1 µM],
CCOC(=O)c1ccc(NC(=O)CSc2ccc3ccccc3n2)cc1,,"inconclusive: 22.4 µM [inhibitor, partial curve, poor fit]"
Fc1ccccc1/C=N/n1c(COc2ccccc2)n[nH]c1=S,,"inconclusive: 35.5 µM [inhibitor, single point]"
Cc1nc2cc(NC(=O)NCc3ccccc3)ccc2o1,,"inconclusive: 0.631 µM [inhibitor, single point]"
CCOc1ccc(C(=O)Nc2ccc(S(=O)(=O)Nc3nccc(C)n3)cc2)cc1OCC,inactive: 25% [at 46.1 µM],
CN1CCN(c2ccc(Cl)cc2NC(=O)C2COc3ccccc3O2)CC1 (stereo not drawn),,"inconclusive: 23.1 µM [inhibitor, single point]"
COc1cc(NC(=O)CCC(=O)Nc2ccc3nc(N4CCOCC4)cc(C)c3c2)cc(OC)c1OC,,"inconclusive: 35.5 µM [inhibitor, single point]"
CCOC(=O)c1cnc(SCc2ccc(C(C)(C)C)cc2)nc1N,,active: 4.11 µM
